For 13 molecules, binding results are on record in publication PMC9844853.

Chains of the proteins cited; added tags and fusions are not shown.
UniProt P32243: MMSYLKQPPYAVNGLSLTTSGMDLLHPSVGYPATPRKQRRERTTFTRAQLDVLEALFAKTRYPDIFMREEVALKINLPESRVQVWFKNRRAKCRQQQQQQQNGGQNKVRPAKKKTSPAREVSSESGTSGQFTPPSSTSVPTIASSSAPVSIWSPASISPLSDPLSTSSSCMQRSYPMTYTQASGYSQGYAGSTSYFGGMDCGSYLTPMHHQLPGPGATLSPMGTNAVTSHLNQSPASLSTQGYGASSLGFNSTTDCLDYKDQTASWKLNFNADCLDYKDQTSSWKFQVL
UniProt P51532: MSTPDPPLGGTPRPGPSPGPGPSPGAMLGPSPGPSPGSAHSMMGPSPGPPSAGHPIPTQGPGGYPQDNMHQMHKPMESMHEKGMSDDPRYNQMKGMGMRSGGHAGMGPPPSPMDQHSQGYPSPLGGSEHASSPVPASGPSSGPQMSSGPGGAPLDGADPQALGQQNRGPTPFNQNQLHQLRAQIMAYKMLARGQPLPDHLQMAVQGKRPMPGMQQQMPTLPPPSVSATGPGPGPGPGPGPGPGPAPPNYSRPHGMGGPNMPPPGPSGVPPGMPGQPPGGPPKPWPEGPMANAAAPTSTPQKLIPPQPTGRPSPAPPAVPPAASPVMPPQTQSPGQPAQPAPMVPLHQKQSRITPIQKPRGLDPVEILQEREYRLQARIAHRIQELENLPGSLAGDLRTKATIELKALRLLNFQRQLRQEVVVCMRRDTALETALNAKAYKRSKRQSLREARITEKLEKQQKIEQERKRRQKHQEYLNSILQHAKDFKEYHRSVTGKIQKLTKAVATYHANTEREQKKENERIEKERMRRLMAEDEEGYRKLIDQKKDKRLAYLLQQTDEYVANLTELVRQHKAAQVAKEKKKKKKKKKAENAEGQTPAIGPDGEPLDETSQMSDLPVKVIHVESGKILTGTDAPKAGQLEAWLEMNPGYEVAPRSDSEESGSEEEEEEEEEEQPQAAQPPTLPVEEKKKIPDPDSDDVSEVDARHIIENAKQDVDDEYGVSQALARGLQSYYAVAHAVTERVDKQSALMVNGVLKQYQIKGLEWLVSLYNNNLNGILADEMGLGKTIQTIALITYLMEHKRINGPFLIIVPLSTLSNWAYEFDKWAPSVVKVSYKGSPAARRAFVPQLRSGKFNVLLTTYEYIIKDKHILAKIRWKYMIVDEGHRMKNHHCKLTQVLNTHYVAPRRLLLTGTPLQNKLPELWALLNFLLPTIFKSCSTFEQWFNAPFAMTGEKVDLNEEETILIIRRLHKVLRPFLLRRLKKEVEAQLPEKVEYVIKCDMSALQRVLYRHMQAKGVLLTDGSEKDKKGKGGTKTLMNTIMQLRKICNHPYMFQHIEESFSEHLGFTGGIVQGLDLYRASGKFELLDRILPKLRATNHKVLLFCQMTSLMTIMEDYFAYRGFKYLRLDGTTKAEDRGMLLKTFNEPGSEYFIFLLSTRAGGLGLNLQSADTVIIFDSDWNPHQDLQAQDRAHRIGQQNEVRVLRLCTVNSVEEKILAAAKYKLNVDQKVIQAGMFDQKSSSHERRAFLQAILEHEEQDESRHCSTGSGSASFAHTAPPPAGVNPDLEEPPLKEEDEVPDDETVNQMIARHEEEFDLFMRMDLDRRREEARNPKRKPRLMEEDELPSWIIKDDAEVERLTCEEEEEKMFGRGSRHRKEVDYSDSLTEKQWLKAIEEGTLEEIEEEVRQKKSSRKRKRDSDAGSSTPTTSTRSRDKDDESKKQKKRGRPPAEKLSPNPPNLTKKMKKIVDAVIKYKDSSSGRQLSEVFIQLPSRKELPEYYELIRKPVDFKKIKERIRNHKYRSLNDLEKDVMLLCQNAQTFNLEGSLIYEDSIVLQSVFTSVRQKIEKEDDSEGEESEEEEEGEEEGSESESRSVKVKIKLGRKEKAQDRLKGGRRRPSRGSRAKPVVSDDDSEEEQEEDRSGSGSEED
UniProt Q92922: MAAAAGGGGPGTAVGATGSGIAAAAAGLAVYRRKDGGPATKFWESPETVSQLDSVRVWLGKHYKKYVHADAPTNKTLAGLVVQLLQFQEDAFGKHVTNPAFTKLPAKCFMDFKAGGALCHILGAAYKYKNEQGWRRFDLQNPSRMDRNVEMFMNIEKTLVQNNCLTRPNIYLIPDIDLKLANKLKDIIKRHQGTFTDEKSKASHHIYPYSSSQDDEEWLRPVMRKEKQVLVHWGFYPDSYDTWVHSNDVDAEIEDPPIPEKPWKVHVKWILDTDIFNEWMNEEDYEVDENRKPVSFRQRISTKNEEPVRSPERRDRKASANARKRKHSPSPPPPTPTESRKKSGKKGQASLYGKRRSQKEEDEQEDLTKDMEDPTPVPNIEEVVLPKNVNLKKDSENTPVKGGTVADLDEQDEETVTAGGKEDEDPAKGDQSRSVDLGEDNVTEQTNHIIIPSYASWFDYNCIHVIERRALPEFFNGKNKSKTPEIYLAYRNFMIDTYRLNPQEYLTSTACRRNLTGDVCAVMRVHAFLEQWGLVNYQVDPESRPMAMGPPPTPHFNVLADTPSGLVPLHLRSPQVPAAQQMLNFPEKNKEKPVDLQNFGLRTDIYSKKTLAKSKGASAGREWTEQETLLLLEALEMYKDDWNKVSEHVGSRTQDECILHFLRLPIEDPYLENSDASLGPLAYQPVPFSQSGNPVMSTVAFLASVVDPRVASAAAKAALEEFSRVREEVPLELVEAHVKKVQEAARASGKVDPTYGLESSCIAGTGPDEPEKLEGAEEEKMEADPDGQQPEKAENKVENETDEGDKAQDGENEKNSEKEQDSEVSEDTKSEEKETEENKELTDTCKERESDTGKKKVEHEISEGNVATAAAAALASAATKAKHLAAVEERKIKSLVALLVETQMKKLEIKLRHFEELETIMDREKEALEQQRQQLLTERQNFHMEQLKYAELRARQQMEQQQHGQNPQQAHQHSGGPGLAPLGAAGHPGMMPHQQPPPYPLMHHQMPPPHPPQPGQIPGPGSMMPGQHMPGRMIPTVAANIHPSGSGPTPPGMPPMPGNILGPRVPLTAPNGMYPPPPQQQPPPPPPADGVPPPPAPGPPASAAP
UniProt Q86U70: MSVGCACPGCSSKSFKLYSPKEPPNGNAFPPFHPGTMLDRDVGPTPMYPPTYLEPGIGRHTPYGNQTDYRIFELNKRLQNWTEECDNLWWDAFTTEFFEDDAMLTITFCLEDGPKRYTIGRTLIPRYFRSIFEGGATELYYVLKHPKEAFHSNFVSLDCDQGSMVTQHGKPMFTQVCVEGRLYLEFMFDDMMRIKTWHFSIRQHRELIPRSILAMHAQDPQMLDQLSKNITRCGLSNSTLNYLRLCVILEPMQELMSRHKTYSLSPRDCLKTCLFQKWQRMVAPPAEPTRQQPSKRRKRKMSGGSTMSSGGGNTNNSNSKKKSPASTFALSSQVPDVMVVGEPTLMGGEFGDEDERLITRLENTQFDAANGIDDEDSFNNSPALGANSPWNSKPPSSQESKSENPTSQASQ
UniProt Q8TAQ2: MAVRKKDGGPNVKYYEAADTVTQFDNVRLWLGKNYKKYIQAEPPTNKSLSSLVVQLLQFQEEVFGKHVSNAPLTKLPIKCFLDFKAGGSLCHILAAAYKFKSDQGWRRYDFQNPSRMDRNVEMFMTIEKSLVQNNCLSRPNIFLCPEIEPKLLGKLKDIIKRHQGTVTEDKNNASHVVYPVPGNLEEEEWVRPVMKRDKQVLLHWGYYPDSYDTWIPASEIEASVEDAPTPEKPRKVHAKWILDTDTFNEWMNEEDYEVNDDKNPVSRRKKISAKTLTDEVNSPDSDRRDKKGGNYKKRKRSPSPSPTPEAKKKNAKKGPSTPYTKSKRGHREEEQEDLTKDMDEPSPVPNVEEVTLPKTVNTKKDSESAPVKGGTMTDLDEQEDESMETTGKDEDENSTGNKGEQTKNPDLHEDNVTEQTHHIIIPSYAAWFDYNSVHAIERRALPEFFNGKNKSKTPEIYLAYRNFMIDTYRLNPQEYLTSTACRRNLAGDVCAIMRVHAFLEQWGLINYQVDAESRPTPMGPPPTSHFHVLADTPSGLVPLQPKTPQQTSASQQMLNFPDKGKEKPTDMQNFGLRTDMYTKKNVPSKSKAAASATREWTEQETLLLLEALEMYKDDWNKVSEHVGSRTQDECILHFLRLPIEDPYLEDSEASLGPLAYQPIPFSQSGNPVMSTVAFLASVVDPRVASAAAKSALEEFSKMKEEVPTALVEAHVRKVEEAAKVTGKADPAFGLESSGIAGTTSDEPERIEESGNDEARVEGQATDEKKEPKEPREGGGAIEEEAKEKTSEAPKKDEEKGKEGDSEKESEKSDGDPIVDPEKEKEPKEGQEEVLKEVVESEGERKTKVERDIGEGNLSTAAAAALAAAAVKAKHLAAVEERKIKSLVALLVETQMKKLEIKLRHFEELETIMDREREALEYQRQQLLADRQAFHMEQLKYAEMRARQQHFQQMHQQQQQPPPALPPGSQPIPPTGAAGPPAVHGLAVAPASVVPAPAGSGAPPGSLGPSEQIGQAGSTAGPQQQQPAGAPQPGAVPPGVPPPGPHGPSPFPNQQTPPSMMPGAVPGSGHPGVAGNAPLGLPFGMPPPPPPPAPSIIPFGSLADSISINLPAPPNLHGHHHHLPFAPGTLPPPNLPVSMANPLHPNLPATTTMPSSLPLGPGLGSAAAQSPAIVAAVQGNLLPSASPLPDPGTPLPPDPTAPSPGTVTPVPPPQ
UniProt P51531: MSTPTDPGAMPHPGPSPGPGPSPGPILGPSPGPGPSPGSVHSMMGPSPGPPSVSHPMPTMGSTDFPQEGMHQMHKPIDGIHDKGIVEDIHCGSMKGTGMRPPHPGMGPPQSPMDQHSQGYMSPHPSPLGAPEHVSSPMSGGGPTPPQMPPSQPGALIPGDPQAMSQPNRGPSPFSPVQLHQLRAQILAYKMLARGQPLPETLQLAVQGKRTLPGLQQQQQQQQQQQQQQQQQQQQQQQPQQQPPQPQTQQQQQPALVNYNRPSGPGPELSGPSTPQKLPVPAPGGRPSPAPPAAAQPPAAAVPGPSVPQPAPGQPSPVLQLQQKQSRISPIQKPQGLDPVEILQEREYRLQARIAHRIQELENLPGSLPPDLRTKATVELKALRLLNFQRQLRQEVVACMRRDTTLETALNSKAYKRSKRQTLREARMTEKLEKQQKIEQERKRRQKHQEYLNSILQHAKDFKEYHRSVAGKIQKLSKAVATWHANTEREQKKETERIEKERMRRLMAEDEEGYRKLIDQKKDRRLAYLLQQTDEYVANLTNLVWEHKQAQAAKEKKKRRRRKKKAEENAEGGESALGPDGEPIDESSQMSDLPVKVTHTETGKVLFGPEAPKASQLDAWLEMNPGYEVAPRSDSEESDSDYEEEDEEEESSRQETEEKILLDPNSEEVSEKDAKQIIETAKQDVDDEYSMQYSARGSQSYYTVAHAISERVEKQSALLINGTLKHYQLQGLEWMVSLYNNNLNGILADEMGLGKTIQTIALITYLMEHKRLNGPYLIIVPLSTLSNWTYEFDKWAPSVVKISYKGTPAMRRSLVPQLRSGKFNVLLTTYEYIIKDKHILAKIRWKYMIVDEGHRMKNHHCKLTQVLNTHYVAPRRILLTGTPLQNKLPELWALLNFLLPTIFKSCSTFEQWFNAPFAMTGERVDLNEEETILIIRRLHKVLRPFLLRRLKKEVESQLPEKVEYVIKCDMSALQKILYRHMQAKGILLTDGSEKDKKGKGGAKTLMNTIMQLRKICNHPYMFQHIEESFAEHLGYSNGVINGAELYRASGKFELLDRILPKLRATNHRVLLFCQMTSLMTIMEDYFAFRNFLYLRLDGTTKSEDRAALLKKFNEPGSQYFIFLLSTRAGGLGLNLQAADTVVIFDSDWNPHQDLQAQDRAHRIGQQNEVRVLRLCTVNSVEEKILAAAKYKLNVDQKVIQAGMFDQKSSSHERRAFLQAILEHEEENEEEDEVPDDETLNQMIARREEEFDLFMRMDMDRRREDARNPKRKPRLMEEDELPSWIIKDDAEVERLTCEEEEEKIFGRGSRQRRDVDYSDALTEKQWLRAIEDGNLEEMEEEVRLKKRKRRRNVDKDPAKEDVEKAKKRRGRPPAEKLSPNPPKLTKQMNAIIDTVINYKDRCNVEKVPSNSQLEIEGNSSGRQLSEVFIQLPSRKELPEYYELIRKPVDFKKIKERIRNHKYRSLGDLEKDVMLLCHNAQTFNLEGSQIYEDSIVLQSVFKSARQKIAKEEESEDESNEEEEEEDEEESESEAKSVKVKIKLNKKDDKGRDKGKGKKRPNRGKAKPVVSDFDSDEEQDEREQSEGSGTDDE

No constants are given. Whether binding was seen depends on the method and setting. In cells and extracts the contact can be indirect. Here binding means that the protein was enriched with, or labelled near, the bait; the list need not be complete. For some assays here: No binding means not detected with the bait.

For assay [1], the target named is OTX2 (human (endogenous in hES-RPE)) (UniProt P32243). The experiment in a line: affinity purification with mass spectrometry; endogenous OTX2 or LHX2 immuno-purified with rabbit anti-OTX2 or anti-Lhx2/LH2 antibody and protein-A agarose from benzonase-treated nuclear lysate of hES-RPE (150 mM NaCl, 50 mM Tris pH 7.5, 1% NP40), overnight 4°C; compared to control IgG; 3 repeats; label-free LC-MS-MS.

Assay [2] has as its target BRG1 (SMARCA4) (human (endogenous in hES-RPE)) (UniProt P51532). The experiment in a line: affinity purification with mass spectrometry; BRG1 pulldown (IP-MS) from hES-RPE compared to nonspecific IgG; the methods do not describe this IP.
Assay [3] concerns the target T1, LHX2 (human (endogenous in hES-RPE)) (UniProt P50458).
T1 sequence: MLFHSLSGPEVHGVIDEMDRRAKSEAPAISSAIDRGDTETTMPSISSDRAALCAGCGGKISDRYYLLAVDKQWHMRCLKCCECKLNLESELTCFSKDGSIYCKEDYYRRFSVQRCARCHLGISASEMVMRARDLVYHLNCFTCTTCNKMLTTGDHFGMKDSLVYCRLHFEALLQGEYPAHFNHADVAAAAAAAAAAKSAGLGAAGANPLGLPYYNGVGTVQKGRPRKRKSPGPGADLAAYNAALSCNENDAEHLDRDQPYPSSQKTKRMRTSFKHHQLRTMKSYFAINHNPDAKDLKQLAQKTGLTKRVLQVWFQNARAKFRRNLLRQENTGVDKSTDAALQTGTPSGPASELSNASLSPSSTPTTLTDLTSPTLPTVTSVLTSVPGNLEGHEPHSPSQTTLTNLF
As to the kind of experiment: affinity purification with mass spectrometry; endogenous OTX2 or LHX2 immuno-purified with rabbit anti-OTX2 or anti-Lhx2/LH2 antibody and protein-A agarose from benzonase-treated nuclear lysate of hES-RPE (150 mM NaCl, 50 mM Tris pH 7.5, 1% NP40), overnight 4°C; compared to control IgG; 3 repeats; label-free LC-MS-MS.

As to “BAF60a (SMARCD1) (from UniProt Q96GM5 1-515)”, in assay [1], the binding entry is listed as “binds”. The same measure, in the same setting: the entry for “BAF155 (SMARCC1) (from UniProt Q92922 1-1105)” is “binds”.

For the molecule “BAF60b (SMARCD2) (from UniProt Q92925 1-531)”, the binding entry in assay [1] is “binds”. In the case of “BAF57 (SMARCE1) (from UniProt Q969G3 1-411)”, the binding entry in assay [1] is reported as “binds”. The same measure, in the same setting: then “BRG1 (SMARCA4) (from UniProt P51532 1-1647)”, with “binds”.

As to OTX2 (from UniProt P32243 1-289), the binding result is recorded as “binds” in assay [2] and “no binding” in assay [3]. As to LDB1 (from UniProt Q86U70 1-411), the binding entry in assay [3] and in assay [1] was “binds” each time. As for “BAF170 (SMARCC2) (from UniProt Q8TAQ2 1-1214)”, in assay [1], the binding entry is on record as “binds”.

In the case of “MITF (microphthalmia-associated TF) (from UniProt O75030 1-526)”, the binding result in assay [1] is “binds”. Take “BRM (SMARCA2) (from UniProt P51531 1-1590)”: the binding entry in assay [1] is “binds”.

B1: LHX2 (protein, UniProt P50458 1-406)
chain: MLFHSLSGPEVHGVIDEMDRRAKSEAPAISSAIDRGDTETTMPSISSDRAALCAGCGGKISDRYYLLAVDKQWHMRCLKCCECKLNLESELTCFSKDGSIYCKEDYYRRFSVQRCARCHLGISASEMVMRARDLVYHLNCFTCTTCNKMLTTGDHFGMKDSLVYCRLHFEALLQGEYPAHFNHADVAAAAAAAAAAKSAGLGAAGANPLGLPYYNGVGTVQKGRPRKRKSPGPGADLAAYNAALSCNENDAEHLDRDQPYPSSQKTKRMRTSFKHHQLRTMKSYFAINHNPDAKDLKQLAQKTGLTKRVLQVWFQNARAKFRRNLLRQENTGVDKSTDAALQTGTPSGPASELSNASLSPSSTPTTLTDLTSPTLPTVTSVLTSVPGNLEGHEPHSPSQTTLTNLF
On to B1, for which the binding entry in assay [1] is given as “no binding”.

B2: SSBP2 (single-strand-binding protein 2) (protein, UniProt P81877 1-361)
chain: MYGKGKSNSSAVPSDSQAREKLALYVYEYLLHVGAQKSAQTFLSEIRWEKNITLGEPPGFLHSWWCVFWDLYCAAPERRETCEHSSEAKAFHDYSAAAAPSPVLGNIPPGDGMPVGPVPPGFFQPFMSPRYPGGPRPPLRIPNQALGGVPGSQPLLPSGMDPTRQQGHPNMGGPMQRMTPPRGMVPLGPQNYGGAMRPPLNALGGPGMPGMNMGPGGGRPWPNPTNANSIPYSSASPGNYVGPPGGGGPPGTPIMPSPADSTNSGDNMYTLMNAVPPGPNRPNFPMGPGSDGPMGGLGGMESHHMNGSLGSGDMDSISKNSPNNMSLSNQPGTPRDDGEMGGNFLNPFQSESYSPSMTMSV
Regarding B2, the binding entry in assay [3] and in assay [1] was “binds” in each case.

B3: LDB2 (protein, UniProt O43679 1-373)
chain: MSSTPHDPFYSSPFGPFYRRHTPYMVQPEYRIYEMNKRLQSRTEDSDNLWWDAFATEFFEDDATLTLSFCLEDGPKRYTIGRTLIPRYFSTVFEGGVTDLYYILKHSKESYHNSSITVDCDQCTMVTQHGKPMFTKVCTEGRLILEFTFDDLMRIKTWHFTIRQYRELVPRSILAMHAQDPQVLDQLSKNITRMGLTNFTLNYLRLCVILEPMQELMSRHKTYNLSPRDCLKTCLFQKWQRMVAPPAEPTRQPTTKRRKRKNSTSSTSNSSAGNNANSTGSKKKTTAANLSLSSQVPDVMVVGEPTLMGGEFGDEDERLITRLENTQYDAANGMDDEEDFNNSPALGNNSPWNSKPPATQETKSENPPPQASQ
With B3, the binding entry in assay [3] and in assay [1] was “binds” each time.
